Reference: PubChem BioAssay AID588590 (National Center for Advancing Translational Sciences (NCATS), 2011)
The whole screen tested about 390,000 compounds, of which about 4,000 (1%) were called active. The shares of active, inactive and inconclusive entries below differ from those in the screen. Calls come from the whole dose curve; as a rule, active = well fitted inhibition curve with a large enough effect; inconclusive = small, poorly fitted or top-dose-only effect, or another doubt; inactive = no such curve, though single readings can be large or run the other way. A potency beside an inconclusive call is a rough fit, not a confirmed value.

Protein sequences, listed by entry. Tags and fused reporters are not part of them. Lines headed by an entry give the natural chain unless they say otherwise; changes in a name come on top.
UniProt Q9UNA4: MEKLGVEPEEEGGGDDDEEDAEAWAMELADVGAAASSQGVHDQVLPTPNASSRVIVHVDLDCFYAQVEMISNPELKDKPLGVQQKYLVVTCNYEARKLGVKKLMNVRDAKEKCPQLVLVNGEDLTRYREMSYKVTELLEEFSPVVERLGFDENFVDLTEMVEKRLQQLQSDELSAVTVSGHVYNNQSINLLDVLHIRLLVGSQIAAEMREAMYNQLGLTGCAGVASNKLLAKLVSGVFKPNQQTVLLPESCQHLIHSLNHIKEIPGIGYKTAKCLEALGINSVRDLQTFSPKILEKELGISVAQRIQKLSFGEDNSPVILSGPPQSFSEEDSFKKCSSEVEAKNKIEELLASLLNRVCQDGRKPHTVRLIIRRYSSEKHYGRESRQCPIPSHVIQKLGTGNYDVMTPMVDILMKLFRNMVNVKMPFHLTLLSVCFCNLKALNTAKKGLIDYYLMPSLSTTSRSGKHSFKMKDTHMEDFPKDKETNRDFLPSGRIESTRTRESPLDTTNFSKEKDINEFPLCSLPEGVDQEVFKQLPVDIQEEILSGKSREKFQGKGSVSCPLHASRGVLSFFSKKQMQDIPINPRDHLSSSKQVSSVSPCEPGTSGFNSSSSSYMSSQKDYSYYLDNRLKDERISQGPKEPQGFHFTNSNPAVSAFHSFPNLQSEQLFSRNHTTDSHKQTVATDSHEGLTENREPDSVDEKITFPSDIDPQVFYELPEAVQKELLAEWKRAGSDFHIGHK

target: DNA polymerase iota (Homo sapiens) (UniProt Q9UNA4); assay: qHTS for Inhibitors of Polymerase Iota; settings: Pol iota fluorescent replication assay, 10 min; series mostly up to 115 µM; activity, negative = inhibition: at the top concentration
Procedure, shortened: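 Pol iota at 10 nM preincubated 15 min with compounds at room temperature; reaction started with fluorescent substrate, 50 nM final. Fluorescence read kinetically at 0 and 10 min; buffer-only wells as negative control.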
Potency is the fitted concentration of half-maximal effect.

Potency, active:
N=C1/C(=C/c2ccco2)C(=O)N=C2SC(CC(=O)N3CCCC3)=NN12 15.8 µM

Potency, inconclusive:
Cc1c(CCC(=O)N[C@@H](C)C(=O)O)c(=O)oc2cc3occ(-c4ccccc4)c3cc12 31.6 µM [inhibitor, single point], COc1ccc(C(=O)N/N=C/c2ccc(N3CCOCC3)s2)cc1OC 15.8 µM [inhibitor, full curve, poor fit], Cc1nc(NC(=O)CN2CCN(c3ccccc3F)CC2)sc1C(=O)N(C)C 39.8 µM [inhibitor, partial curve, poor fit], CCOC(=O)c1ccc(NC(=O)Cn2nnc(-c3ccccc3)n2)cc1 35.5 µM [inhibitor, single point], CCc1nc2cc(Cl)c(Cl)cc2[nH]1 50.1 µM [inhibitor, partial curve], O=C(c1ccc2c(=O)n(Cc3ccco3)c(=S)[nH]c2c1)N1CCN(c2ccccc2)CC1 25.1 µM [inhibitor, full curve, poor fit], Cc1ccc(OCC(=O)OC2CCCN(C)C2)cc1 (stereo not given) 39.8 µM [inhibitor, single point], CC(C)Nc1ncnc2[nH]ncc12 89.1 µM [inhibitor, single point], COc1cc(OC)cc(C(=O)N/N=C/c2ccc(OC)c(COc3ccc4ccccc4c3)c2)c1 100 µM [inhibitor, single point], Cc1cccc(C)c1OC(=O)C(c1ccccc1)c1ccccc1 4.47 µM [inhibitor, full curve, poor fit], Cc1ccc(C)c(N2CCN(C(=O)c3cccn3-c3nnc(N4CCCCC4)s3)CC2)c1 0.562 µM [inhibitor, full curve, poor fit], CC(C)OC(=O)C1Cc2ccccc2CN1S(=O)(=O)c1cccs1 (stereo not given) 50.1 µM [inhibitor, partial curve], COC(=O)CCCC1=CC2=CC(=O)C(C)(OC(=O)CCc3ccccc3)C(=O)C2=CO1 (stereo not given) 31.6 µM [inhibitor, partial curve, poor fit], Cc1ccc(N(CC(=O)Nc2cc(C)ccc2C)S(C)(=O)=O)cc1 89.1 µM [inhibitor, single point], N#Cc1c(N)oc(-c2cccs2)c1-c1cccs1 31.6 µM [inhibitor, single point], O=C(COc1ccc(Cl)cc1Cl)N/N=C/CCc1ccccc1 100 µM [inhibitor, single point], C[C@@]12C(=O)Nc3ccc(Cl)cc3C(=O)N1[C@H]1c3ccccc3OC[C@@H]1[C@@H]2c1ccccc1 2.51 µM [inhibitor, full curve], Cc1ccc(Oc2ccc(NC(=O)C3=CC=CN4CCS(=O)(=O)N=C34)cc2)cc1 79.4 µM [inhibitor, single point], O=C(Nc1nccs1)c1cc2c(s1)CCCCC2 17.8 µM [inhibitor, partial curve, poor fit], COc1ccccc1C(=O)NCC(c1ccco1)N1CCc2ccccc21 (stereo not given) 56.2 µM [inhibitor, partial curve, poor fit], CCCCn1c(=O)[nH]c(=O)c2c1nc(-c1ccc(-c3ccccc3Br)o1)n2CC 14.1 µM [inhibitor, partial curve], CCSc1nnc(NC(=O)COc2ccccc2)s1 79.4 µM [inhibitor, full curve], CCn1c(SCC(=O)c2ccccc2)nc2sc3c(c2c1=O)CCN(C)C3 25.1 µM [inhibitor, partial curve, poor fit], CCOC(=O)C1CCN(C(=O)c2ccc3c(c2)NC(=O)/C(=C\c2cccc(C)c2)S3)CC1 3.55 µM [inhibitor, full curve], CC1CCN(C(=O)Cn2nnnc2CN2CCOCC2)CC1 20 µM [inhibitor, full curve, poor fit], N#CNC(=Nc1ccc(F)cc1)SCc1ccccc1 14.1 µM [inhibitor, full curve], CCOC(=O)C1CCCN(CCCc2ccccc2)C1 (stereo not given) 39.8 µM [inhibitor, partial curve, poor fit], COc1ccc(S(=O)(=O)NCC(c2ccco2)N2CCOCC2)cc1 (stereo not given) 17.8 µM [inhibitor, partial curve, poor fit], O=C(CN1C(=O)/C(=C/c2ccccc2Cl)SC1=S)NC1C=CS(=O)(=O)C1 (stereo not given) 39.8 µM [inhibitor, partial curve], Brc1cccc(OCCN2CCOCC2)c1 35.5 µM [inhibitor, partial curve, poor fit], O=C(N/N=C/c1cccnc1)c1cccc(NC(=O)c2cccc(Br)c2)c1 28.2 µM [inhibitor, partial curve, poor fit], Cn1c(SCC(=O)Nc2ccc(Br)cn2)nnc1C1CC1 25.1 µM [inhibitor, partial curve, poor fit], O=C(NCC(c1ccco1)N1CCCC1)c1ccc(S(=O)(=O)Nc2ccccc2Cl)cc1 (stereo not given) 50.1 µM [inhibitor, partial curve, poor fit], O=C(CCNC(=O)c1ccccc1Cl)NCc1ccco1 44.7 µM [inhibitor, partial curve], COC(=O)C(C)(C)c1cccnc1C#N 20 µM [inhibitor, full curve], CC1=NOC(=O)/C1=C\c1ccc(-c2ccccc2Br)o1 12.6 µM [inhibitor, full curve, poor fit], COc1cc([N+](=O)[O-])cc(/C=N/NC(=O)CSc2nnc(-c3ccccc3)n2C)c1O 39.8 µM [inhibitor, single point], O=C(NCc1ccco1)C1CCN(c2nnc(-n3cccc3)s2)CC1 28.2 µM [inhibitor, single point], COc1cccc(OC(C)c2ccnc3nc(/N=C/N(C)C)nn23)c1 (stereo not given) 89.1 µM [inhibitor, partial curve, poor fit], CCCCn1c(=O)c(C(=O)OCC)c(O)c2ccccc21 22.4 µM [inhibitor, partial curve, poor fit], O=C1CC(N2CCN(c3ccccc3)CC2)C(=O)N1c1cccc(Cl)c1 (stereo not given) 25.1 µM [inhibitor, single point], O=C(NNS(=O)(=O)Cc1ccccc1)c1ccc([N+](=O)[O-])cc1 39.8 µM [inhibitor, partial curve, poor fit], O=C(O)Cc1sc(Nc2ccccc2Cl)nc1-c1ccccc1 8.91 µM [inhibitor, partial curve], O=C(NCc1ccc(S(=O)(=O)Nc2ccccc2Cl)s1)c1ccccc1 89.1 µM [inhibitor, partial curve, poor fit], O=C(c1ccccc1)C(c1ccccc1)c1ccccc1 3.98 µM [inhibitor, partial curve, poor fit], Cc1nc(C(C)NC(=O)CCc2nnc(-c3ccsc3)o2)cs1 (stereo not given) 22.4 µM [inhibitor, single point], COc1ccc(CNC(=O)COC(=O)C2=Cc3ccccc3OC2)cc1 28.2 µM [inhibitor, partial curve, poor fit], Cc1ccc(NC(=O)COC(=O)CNC(=O)C2CCCCC2)cc1S(=O)(=O)N(C)C 89.1 µM [inhibitor, single point], CC1Sc2ccc(S(=O)(=O)N(C)Cc3ccccc3)cc2NC1=O (stereo not given) 79.4 µM [inhibitor, partial curve], O=C1CN(Cc2ccccc2)S(=O)(=O)c2ccccc21 100 µM [inhibitor, partial curve, poor fit]

activity, negative = inhibition, inactive:
CCCCN(CC)CCNC(=O)Cn1c(=O)c2cccn2c2cccnc21 -9.37%, Cc1ccc2c(c1)c1nnc(SCC(=O)Nc3cccc(Cl)c3C)nc1n2CC(=O)O -1.07%, CCN1CCN(CCCNC(=O)c2cc3c(s2)-c2c(C)cccc2OC3)CC1 18%, CCN(CC)N=Nc1ccc(S(N)(=O)=O)cc1 13%, CCn1ccc2cc(S(=O)(=O)N3CCC(C(=O)NCCOC)CC3)ccc21 26.7%, CCOc1ccccc1CNC(=O)c1[nH]c2ccccc2c1Sc1ccccc1 31.7%, CN1CCC(=C2c3ccccc3C(O)c3ccccc32)CC1 (stereo not given) -24.7%, O=C(c1cncc(Br)c1)N1CCCc2ccccc21 39.4%, C=CCc1c(C)nc2cc(-c3ccccc3)[nH]n2c1=O 20.2%, O=C(CN1CCN(c2ccccc2O)CC1)NC(=O)NC1CCCC1 64.7%, COc1ccc(CCNC(=O)CN(c2cc(C(F)(F)F)ccc2Cl)S(C)(=O)=O)cc1 9.36%, COc1ccc(C(=O)Nc2ccc(C(=O)N3CCCCC3)cc2)cc1OC 113%, CCOC(=O)c1ccc(NC(=O)C(Cc2ccccc2)NS(=O)(=O)c2ccc(Br)s2)cc1 (stereo not given) 8.21%, CCCOc1cccc(-c2cc(-c3n[nH]c(=S)n3CC)c3ccccc3n2)c1 -2.39% [at 58.9 µM]
